Data on three molecules can be found in patent US20240366778A1 (CSPC MEGALITH BIOPHARMARCEUTICAL, published 2024).

T1: Recombinant Rat Nectin-4 His-tag Protein, CF (rat) (UniProt D3ZET1)
T1 sequence: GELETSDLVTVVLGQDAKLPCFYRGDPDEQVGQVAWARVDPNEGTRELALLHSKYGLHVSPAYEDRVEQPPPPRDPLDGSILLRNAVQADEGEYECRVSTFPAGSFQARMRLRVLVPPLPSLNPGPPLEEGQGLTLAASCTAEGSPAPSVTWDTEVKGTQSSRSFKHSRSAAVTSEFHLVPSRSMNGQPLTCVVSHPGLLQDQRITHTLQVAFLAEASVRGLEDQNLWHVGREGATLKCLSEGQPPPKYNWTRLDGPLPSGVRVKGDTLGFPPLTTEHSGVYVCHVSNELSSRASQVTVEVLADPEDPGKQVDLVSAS

B1: humanized antibody SWY2001-Ab3 (antibody, human IgG1, kappa, V domains shown)
VH: QVQLVQSGAEVKKPGASVKVSCKASGYTFTSYYIHWVRQAPGQRLEWMGWIYPGNVNTKYNENFRDRVTITRDTSASTAYMELSSLRSEDTAVYYCARGIYYFDYWGQGTLVTVSS
VL: AIQMTQSPSSLSASVGDRVTITCKASQSVNNDVAWYQQKPGKAPKLLIYYASNRDTGVPSRFSGSGSGTDFTLTISSLQPEDFATYFCHQDYSSPFTFGGGTKVEIKR
notes: Full-length IgG1, kappa
B2: humanized antibody SWY2001-Ab2 (antibody, human IgG1, kappa, V domains shown)
VH: B1 VH
VL: B1 VL with P80A, F83L, T85V
notes: Full-length IgG1, kappa
B3: humanized antibody SWY2001-Ab1 (antibody, human IgG1, kappa, V domains shown)
VH: B1 VH
VL: B1 VL with A1I, S9K, S10F, K42Q, A43S, S60D

Where a chain is given by its changes, count along the chain named. No constants are given. Whether binding was seen depends on the method and setting. Some results given as binding are weak or reduced against the parent protein; the word gives no strength. For part of these data: Where a sequence is shown, tags or fusion partners need not be part of it.

One test has as its target T1, Recombinant Rat Nectin-4 His-tag Protein, CF (rat). Description: ELISA.
With B1, the binding entry is given as “binds”.

With B2, the binding result is “binds”.

Take B3: the binding entry is given as “binds”.

A further test concerns the target Cynomolgus Nectin-4 Protein, His Tag (cynomolgus). Briefly: ELISA. Background: In an ELISA, binding on a coated surface is turned into a signal by an enzyme label.
As to B1, the binding entry is reported as “binds”.

B2: the binding result is recorded as “binds”.

On to B3, for which the binding entry is on record as “binds”.
